# From PMC11895297
# Sequences of proteins named here, by UniProt entry; tags and fusion partners are left off.
# UniProt O14980: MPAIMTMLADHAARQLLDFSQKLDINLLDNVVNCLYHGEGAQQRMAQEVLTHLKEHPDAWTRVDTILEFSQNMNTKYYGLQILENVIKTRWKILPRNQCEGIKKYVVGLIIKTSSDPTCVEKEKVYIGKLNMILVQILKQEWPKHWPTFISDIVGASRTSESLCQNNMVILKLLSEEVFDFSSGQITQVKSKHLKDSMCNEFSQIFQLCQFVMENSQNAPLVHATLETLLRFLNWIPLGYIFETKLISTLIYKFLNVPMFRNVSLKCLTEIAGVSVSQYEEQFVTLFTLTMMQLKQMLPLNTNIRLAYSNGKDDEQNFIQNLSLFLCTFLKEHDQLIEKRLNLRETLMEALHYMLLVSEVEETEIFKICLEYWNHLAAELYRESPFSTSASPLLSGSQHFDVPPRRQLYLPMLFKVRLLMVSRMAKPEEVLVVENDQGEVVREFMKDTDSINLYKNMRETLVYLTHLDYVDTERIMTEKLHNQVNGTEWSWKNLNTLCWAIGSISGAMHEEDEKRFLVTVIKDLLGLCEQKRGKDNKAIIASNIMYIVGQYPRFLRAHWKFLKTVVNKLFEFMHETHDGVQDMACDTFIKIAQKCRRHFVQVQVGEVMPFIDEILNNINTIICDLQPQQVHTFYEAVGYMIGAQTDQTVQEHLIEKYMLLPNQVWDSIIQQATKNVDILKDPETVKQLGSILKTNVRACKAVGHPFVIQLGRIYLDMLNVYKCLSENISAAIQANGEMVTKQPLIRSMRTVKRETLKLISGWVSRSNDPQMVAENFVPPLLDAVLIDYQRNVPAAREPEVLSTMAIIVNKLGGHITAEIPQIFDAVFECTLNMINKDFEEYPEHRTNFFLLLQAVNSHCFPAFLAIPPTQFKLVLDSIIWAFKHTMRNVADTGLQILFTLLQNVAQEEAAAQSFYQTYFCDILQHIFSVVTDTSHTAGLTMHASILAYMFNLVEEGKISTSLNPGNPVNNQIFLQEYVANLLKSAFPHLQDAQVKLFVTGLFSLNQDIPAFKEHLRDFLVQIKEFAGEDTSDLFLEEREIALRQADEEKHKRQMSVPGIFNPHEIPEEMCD
# No constants are given. Whether binding was seen depends on the method and setting. Binding seen in cells or lysates may run through a third protein. Some binding calls cover weakened binding; strength is not graded here. For part of these data: Sequences can lack the tags named with a protein.
# Tests used:
# [1] = biological target: T1, Peroxisome proliferator-activated receptor α (endogenous) (human (endogenous in hepatoma cell lines)) (UniProt Q07869); test: co-IP; endogenous proteins in hepatoma cell lysates, IgG or specific antibodies overnight, protein G beads, western blot; also in SNU-449 with CRSP8 knockdown and MHCC97H with CRSP8 overexpression
# T1 sequence: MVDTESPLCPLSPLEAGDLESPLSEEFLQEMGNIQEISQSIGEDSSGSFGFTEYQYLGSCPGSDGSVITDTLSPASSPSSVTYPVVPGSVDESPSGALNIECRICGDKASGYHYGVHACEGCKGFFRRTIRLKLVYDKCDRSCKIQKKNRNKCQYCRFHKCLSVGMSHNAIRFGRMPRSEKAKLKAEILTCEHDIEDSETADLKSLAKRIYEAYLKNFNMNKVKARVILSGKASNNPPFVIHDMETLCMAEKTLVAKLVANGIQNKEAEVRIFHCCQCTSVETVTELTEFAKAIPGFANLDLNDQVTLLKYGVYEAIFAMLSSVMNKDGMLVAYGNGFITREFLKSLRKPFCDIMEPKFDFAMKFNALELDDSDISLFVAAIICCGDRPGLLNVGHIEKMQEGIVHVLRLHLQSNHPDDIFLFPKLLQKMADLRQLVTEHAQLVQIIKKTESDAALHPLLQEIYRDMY
# [2] = biological target: T2, PPARα-Flag (wild type construct) (UniProt Q07869); test: co-IP; HepG2 cells transfected with RAN-HA or PPARα-Flag constructs, 1 mg protein immunoprecipitated with Flag/HA-beads overnight, western blot
# T2 sequence: T1 sequence
# Flag-GFP-PPARα = biological target: T3, Flag-GFP-PPARα (UniProt Q07869); test: co-IP; HEK293T cells overexpressing HA-GFP-RAN, Flag-GFP-PPARα and GFP-CRM1, with or without stable CRSP8 knockdown, western blot
# T3 sequence: T1 sequence
Substance,binding [1],binding [2],binding (Flag-GFP-PPARα)
Chromosome maintenance region 1 (endogenous) (from UniProt O14980 1-1071),binds,binds,–
GFP-CRM1 (from UniProt O14980 1-1071),–,–,binds
